# Reference: PMC7819943, “Rice protein-binding microarrays: a tool to detect cis-acting elements near promoter regions in rice”
# Sequences of proteins named here, by UniProt entry; tags and fusion partners are left off.
# UniProt Q0JBA9, entry or part of it: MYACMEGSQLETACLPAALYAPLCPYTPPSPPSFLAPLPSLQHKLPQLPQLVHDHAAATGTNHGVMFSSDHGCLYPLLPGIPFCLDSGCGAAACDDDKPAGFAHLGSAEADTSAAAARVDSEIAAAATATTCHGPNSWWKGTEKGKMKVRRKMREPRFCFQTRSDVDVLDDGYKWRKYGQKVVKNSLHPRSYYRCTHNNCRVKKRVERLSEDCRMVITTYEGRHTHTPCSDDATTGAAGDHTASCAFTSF
# This is one part of the list.
# Target: OsWRKY34 (Oryza sativa, UniProt Q0JBA9 1-250)
# Test: protein-binding microarray (RPBM); PBS, 2% BSA, 51.3 ng/ul salmon testes DNA, 50 uM zinc acetate, 200 nM TF, 25 C, 1 h; high values mean tight binding
# Details: protein: recombinant; tags: N-terminal polyhistidine and DsRed monomer fusion (pET32a); label: CyDye5-dUTP incorporated in the synthesized complementary strand; 3' TTTTT single-stranded linker to array surface; dsDNA, one strand shown
# Procedure, shortened: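 Polyhistidine-tagged DsRed fusions of transcription factors, joined at the N-terminus, were expressed in E. coli BL21-CodonPlus and isolated on Ni–NTA. They were incubated at 200 nM for 1 h at 25 °C on a custom Agilent array, double-stranded and BSA-blocked, in PBS with 2% BSA, salmon testes DNA and 50 µM zinc acetate. The binding signal is per-feature fluorescence intensity (arbitrary units) read on an Axon 4000B scanner after washing.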
row,Sequence,binding signal
1,CTCCAAATCAGAAACACACTCGCCTCGCCTCCTTTCGCTCCGGAGTCACCTAGTGCAG,8540 fluorescence intensity (a.u.)
2,TTATCATCTGCCACCAGTTTTAGTTGTATACTTGCAGCCTCGGAGTCACCTAGTGCAG,11600 fluorescence intensity (a.u.)
3,CATTGATCTAGGATCACTCCGGTCTTTCCTTTCATGCTGACGGAGTCACCTAGTGCAG,10900 fluorescence intensity (a.u.)
4,ATATTGTTGACTTTTTAGCACATGTTTAACCGTTCATCTTCGGAGTCACCTAGTGCAG,19600 fluorescence intensity (a.u.)
5,ACGTCCCCGCCACGCAAGCGCCCATCCACCCGTCCATCCCCGGAGTCACCTAGTGCAG,9680 fluorescence intensity (a.u.)
6,GTTCCAAAATTTTTCTTTAAACTTCCAACATTTTCATCACCGGAGTCACCTAGTGCAG,9190 fluorescence intensity (a.u.)
7,CAAGCAATACCTATTTCCTGCACATGTCATCACCTCTTTTCGGAGTCACCTAGTGCAG,14100 fluorescence intensity (a.u.)
8,AACTCACCTCCTTCGTCTTCACACGCACGCTTTTCAAACTCGGAGTCACCTAGTGCAG,8450 fluorescence intensity (a.u.)
9,CCCGTTGCTACTTTGCTCCTCGCATCAGTCACCTGGGGATCGGAGTCACCTAGTGCAG,8300 fluorescence intensity (a.u.)
10,GAGGGAAATCGATCTGAGAGGGAGGAGGGGAGGAGGGGAGCGGAGTCACCTAGTGCAG,13600 fluorescence intensity (a.u.)
11,GCCTTTATGGACTGAGCTCTTTGTTTATTTACACCTTGTCCGGAGTCACCTAGTGCAG,12200 fluorescence intensity (a.u.)
12,AAGGCTCCAACTGTTCTTGTCACACTCTCACTGTCCACGCCGGAGTCACCTAGTGCAG,9170 fluorescence intensity (a.u.)
13,CTGGATGGTGGTGGTCGAACTATCAGGGGCGTTATGCATACGGAGTCACCTAGTGCAG,10200 fluorescence intensity (a.u.)
14,TTCTCTTGCTTCCTTTTTGGTCATTTGAGATAGCTTTATCCGGAGTCACCTAGTGCAG,10300 fluorescence intensity (a.u.)
15,TCTTCGGCCTCTCCGCCTCCGCCATTGACAGCGTTGACCACGGAGTCACCTAGTGCAG,18300 fluorescence intensity (a.u.)
16,CCCACCACACACCCGGCCCCACATGTCATCCACCCATCCACGGAGTCACCTAGTGCAG,16000 fluorescence intensity (a.u.)
17,ATTTGACATTTTCTAGCTAGTACAACCGGTTTCATTTTTACGGAGTCACCTAGTGCAG,11100 fluorescence intensity (a.u.)
18,ATCCTCGCTGCTCTTCTCCACTGGTTCTCCATCACCGGCTCGGAGTCACCTAGTGCAG,8160 fluorescence intensity (a.u.)
19,CAATGGTCACTACATATTTTGTTTGCACCACATATTTCTCCGGAGTCACCTAGTGCAG,9620 fluorescence intensity (a.u.)
20,CAGGGCCTTAATCGTATGTATCAGCTGAATTCCTGTATTGCGGAGTCACCTAGTGCAG,8480 fluorescence intensity (a.u.)
21,GGTTTTGGAGGGCGGTTTCGCTGATGTGGCGGTGTTGACTCGGAGTCACCTAGTGCAG,13500 fluorescence intensity (a.u.)

# A run of entries of the results above, as a working copy:
row,Sequence,binding signal
14,TTCTCTTGCTTCCTTTTTGGTCATTTGAGATAGCTTTATCCGGAGTCACCTAGTGCAG,10300 fluorescence intensity (a.u.)
15,TCTTCGGCCTCTCCGCCTCCGCCATTGACAGCGTTGACCACGGAGTCACCTAGTGCAG,18300 fluorescence intensity (a.u.)

# The results go on:

row,Sequence,binding signal
1,CCTTTTTTTGGCAAGGAGTTCCCACCGTGAGATCGAGATCCGGAGTCACCTAGTGCAG,9140 fluorescence intensity (a.u.)
2,ATATTACATGTTTTACTTCTGCAGTCTGTATAATTTCTTCCGGAGTCACCTAGTGCAG,14400 fluorescence intensity (a.u.)
3,CGCCATGGCTGCCGCCGCCGCCGCCGCCTCACTCTCCGTCCGGAGTCACCTAGTGCAG,9320 fluorescence intensity (a.u.)
4,TTTTTTTCTTTCTAAATTTCCTTTGTGGCTTGCTCTCTCCCGGAGTCACCTAGTGCAG,8490 fluorescence intensity (a.u.)
5,TACCTCCATATTTTAATGTATGACGCCGTTGACTTTTTATCGGAGTCACCTAGTGCAG,28900 fluorescence intensity (a.u.)
6,GAGACGTTGTATATCTGGTTTTGTGGTTTGGGGATGTTTTCGGAGTCACCTAGTGCAG,20100 fluorescence intensity (a.u.)
7,CATATGTTTGACCATTCGTCTTATTCAAAAATTTTATTCACGGAGTCACCTAGTGCAG,9660 fluorescence intensity (a.u.)
8,CACCCCACGTCACGCCGCACCCGCACCGTATCCTGCCCAACGGAGTCACCTAGTGCAG,8990 fluorescence intensity (a.u.)
9,CGCAACTCCCCGATCCCACGTGGTCACCGCGACCTCTCTACGGAGTCACCTAGTGCAG,8440 fluorescence intensity (a.u.)
10,GGGAGTAGTATTGATTTGACCATCGTTGACCAAGAATAAGCGGAGTCACCTAGTGCAG,17400 fluorescence intensity (a.u.)
11,GCTTAGTTTGATCTGGTTGAGGGGATACATATGTAGCTGTCGGAGTCACCTAGTGCAG,9980 fluorescence intensity (a.u.)
12,GGTGTAATTAGCTATCCTGTGAAAAGGTGTATTGGATCATCGGAGTCACCTAGTGCAG,8250 fluorescence intensity (a.u.)
13,GGGCGGGTGAGCAGTATTGTGCCATGTGAAACAGATACTACGGAGTCACCTAGTGCAG,14900 fluorescence intensity (a.u.)
14,GGTCCCCTACAAAGGTCTAGAGGTCACTAGTAGTACACACCGGAGTCACCTAGTGCAG,8570 fluorescence intensity (a.u.)
15,ATCTCTGATTTTTTTTTACATTTTTTTGCAACTTTTTGGACGGAGTCACCTAGTGCAG,8080 fluorescence intensity (a.u.)
16,TTCGGATGCCACTTTTCCCAACCTCTCTCATTCGTTTTCCCGGAGTCACCTAGTGCAG,9580 fluorescence intensity (a.u.)
17,TTTGTGGTTGGTTGTATCGTGATCCTGAGTGTGAAAAAACCGGAGTCACCTAGTGCAG,8120 fluorescence intensity (a.u.)
18,CGTGTCCGAAAAATCCTTCCAACATCCGGTCAAATATCTGCGGAGTCACCTAGTGCAG,8180 fluorescence intensity (a.u.)
19,ATGTTATTATGTGTTGGTCTTATTTTGTGGACTAATGTAACGGAGTCACCTAGTGCAG,8180 fluorescence intensity (a.u.)
20,TGAGTGTACGTACCGTTGTCAGTGTCCGCGTTGTAATTCTCGGAGTCACCTAGTGCAG,10600 fluorescence intensity (a.u.)
21,CACCGCTGCAACTACTGCCGCCGAGCCACGTCGCGCCGCCCGGAGTCACCTAGTGCAG,8430 fluorescence intensity (a.u.)
